In assay [1] the target is Gαq-Lg (human Gαq subunit with LgBiT inserted into the helical domain between residues 123-124) (human) (UniProt P50148). Put plainly: split reporter + FRET or BRET; NanoBiT-BRET imaging of single living parent cells: Gαq-Lg, Sm-GRK6 and AT1R-mVenus co-expressed with Gβ1, Gγ2 and RIC8A; furimazine; before and after vehicle, Ang II, TRV027 or Ang II + YM-254890; controls with HaloTag-fused AT1R or NanoLuc-fused Gαi1. (In general: BRET reads energy transfer from a luciferase to a nearby fluorophore.)

The chains behind the UniProt entries cited, without tags or fusion partners. Where a name states a change or a piece, a line headed by the entry shows the natural chain unless it says otherwise. A line that says so, or that is headed by a name, gives the form on record, which may keep a tag or linker.
UniProt P50148: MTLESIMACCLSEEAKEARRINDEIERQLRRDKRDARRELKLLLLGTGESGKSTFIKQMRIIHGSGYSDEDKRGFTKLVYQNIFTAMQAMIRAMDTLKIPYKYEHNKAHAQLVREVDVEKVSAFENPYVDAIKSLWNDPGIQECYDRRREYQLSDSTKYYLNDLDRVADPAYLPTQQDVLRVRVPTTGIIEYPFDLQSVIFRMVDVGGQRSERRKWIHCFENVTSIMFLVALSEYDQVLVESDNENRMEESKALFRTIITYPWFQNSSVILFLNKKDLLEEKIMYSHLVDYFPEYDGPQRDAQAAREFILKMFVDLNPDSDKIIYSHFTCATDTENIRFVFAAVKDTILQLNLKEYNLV
AT1R S331A (phospho-code single-Ala mutant) (P30556, form named): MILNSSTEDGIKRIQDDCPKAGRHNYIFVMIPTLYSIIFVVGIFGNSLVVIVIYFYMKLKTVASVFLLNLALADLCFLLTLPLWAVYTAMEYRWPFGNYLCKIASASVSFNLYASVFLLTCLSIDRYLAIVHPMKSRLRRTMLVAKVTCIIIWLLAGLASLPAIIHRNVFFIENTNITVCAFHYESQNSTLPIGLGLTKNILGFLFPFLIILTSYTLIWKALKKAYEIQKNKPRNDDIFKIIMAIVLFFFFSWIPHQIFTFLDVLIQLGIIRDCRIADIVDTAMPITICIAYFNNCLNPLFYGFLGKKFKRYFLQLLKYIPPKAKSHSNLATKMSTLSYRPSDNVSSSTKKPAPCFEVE
AT1R S326A (phospho-code single-Ala mutant) (P30556, form named): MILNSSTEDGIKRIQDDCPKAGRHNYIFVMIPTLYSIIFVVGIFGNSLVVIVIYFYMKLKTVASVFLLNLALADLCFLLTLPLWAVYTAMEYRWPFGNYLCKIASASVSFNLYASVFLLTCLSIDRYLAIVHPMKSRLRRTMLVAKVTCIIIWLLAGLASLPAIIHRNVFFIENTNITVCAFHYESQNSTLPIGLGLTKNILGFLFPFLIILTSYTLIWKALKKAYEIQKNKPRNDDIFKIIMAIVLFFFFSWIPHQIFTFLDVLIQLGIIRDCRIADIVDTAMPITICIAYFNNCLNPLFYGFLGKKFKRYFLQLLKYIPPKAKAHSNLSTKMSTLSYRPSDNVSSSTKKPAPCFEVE
AT1R T332A (phospho-code single-Ala mutant) (P30556, form named): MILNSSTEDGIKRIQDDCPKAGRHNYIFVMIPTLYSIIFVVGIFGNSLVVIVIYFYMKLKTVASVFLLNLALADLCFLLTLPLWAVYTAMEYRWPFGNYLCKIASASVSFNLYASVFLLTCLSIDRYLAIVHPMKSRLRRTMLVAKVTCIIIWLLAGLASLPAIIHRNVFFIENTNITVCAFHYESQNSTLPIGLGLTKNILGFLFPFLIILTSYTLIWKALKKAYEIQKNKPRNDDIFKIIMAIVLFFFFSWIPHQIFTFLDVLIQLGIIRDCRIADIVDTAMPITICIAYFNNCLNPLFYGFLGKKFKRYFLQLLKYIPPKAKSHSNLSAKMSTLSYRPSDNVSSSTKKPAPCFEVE
AT1R T336A (phospho-code single-Ala mutant) (P30556, form named): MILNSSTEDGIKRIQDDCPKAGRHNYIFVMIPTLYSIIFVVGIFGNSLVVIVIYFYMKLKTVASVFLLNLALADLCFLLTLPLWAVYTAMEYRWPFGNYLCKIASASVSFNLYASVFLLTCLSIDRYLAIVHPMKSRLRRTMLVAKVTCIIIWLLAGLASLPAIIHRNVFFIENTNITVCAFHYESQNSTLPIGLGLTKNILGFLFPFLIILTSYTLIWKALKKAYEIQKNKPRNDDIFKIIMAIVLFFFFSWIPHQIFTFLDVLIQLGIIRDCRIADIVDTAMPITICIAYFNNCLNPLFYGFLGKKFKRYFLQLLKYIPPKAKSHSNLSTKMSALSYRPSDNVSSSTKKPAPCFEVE
AT1R S328A (phospho-code single-Ala mutant) (P30556, form named): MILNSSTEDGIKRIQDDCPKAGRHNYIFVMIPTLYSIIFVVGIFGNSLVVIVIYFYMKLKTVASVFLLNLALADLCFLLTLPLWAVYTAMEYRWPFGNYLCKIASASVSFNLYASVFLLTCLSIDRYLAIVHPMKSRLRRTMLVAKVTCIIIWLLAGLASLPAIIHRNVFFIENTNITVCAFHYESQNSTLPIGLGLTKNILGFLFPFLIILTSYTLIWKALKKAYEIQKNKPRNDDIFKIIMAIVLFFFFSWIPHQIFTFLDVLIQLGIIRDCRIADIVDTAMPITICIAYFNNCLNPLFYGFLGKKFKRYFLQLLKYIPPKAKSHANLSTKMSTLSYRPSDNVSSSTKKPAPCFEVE
AT1R S335A (phospho-code single-Ala mutant) (P30556, form named): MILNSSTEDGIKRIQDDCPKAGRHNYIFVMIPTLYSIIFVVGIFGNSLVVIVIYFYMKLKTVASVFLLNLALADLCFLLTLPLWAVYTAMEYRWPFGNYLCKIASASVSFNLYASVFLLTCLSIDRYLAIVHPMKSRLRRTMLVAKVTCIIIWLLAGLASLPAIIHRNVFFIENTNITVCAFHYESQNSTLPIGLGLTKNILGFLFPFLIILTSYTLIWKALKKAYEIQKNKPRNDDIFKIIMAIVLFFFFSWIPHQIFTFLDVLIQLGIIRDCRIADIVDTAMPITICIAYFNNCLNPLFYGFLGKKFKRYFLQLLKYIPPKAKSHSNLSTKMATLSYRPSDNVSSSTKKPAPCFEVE
AT1R S338A (phospho-code single-Ala mutant) (P30556, form named): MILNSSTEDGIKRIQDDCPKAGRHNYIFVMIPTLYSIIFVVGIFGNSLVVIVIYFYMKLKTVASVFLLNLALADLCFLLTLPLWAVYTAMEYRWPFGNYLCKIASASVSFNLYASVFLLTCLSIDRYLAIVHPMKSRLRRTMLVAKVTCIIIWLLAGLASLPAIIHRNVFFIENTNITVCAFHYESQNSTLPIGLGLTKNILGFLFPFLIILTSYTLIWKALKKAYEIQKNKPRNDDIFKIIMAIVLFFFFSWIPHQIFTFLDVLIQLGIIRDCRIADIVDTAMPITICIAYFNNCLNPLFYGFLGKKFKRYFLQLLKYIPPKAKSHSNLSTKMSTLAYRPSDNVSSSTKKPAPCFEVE
UniProt P43250: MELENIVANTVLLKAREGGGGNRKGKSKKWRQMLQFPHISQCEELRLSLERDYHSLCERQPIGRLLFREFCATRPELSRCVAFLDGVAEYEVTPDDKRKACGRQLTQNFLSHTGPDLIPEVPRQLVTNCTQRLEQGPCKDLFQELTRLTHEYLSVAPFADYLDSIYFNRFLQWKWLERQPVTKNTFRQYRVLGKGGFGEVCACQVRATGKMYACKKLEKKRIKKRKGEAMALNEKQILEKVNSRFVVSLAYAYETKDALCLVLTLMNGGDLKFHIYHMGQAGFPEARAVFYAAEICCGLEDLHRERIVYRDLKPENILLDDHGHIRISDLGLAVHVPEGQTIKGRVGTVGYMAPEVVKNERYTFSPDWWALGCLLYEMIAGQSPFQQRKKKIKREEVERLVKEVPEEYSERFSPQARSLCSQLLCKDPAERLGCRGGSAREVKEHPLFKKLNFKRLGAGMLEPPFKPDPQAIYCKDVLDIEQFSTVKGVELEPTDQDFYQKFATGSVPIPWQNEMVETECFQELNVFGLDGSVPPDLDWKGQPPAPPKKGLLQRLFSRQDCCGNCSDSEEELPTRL
UniProt P49407: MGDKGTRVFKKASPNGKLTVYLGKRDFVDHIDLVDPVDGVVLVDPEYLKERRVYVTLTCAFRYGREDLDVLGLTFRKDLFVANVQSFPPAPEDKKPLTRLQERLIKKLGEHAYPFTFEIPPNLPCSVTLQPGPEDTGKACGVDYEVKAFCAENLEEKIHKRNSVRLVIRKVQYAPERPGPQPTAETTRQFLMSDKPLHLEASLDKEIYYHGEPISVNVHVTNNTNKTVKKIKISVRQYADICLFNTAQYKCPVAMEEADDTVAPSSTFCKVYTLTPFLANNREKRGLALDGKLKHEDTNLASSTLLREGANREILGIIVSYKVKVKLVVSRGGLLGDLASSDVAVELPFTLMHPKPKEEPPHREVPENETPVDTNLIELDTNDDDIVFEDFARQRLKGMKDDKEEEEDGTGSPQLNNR
Lg-β-arrestin1 with the truncation in the finger-loop region (∆FLR) (P49407, form named): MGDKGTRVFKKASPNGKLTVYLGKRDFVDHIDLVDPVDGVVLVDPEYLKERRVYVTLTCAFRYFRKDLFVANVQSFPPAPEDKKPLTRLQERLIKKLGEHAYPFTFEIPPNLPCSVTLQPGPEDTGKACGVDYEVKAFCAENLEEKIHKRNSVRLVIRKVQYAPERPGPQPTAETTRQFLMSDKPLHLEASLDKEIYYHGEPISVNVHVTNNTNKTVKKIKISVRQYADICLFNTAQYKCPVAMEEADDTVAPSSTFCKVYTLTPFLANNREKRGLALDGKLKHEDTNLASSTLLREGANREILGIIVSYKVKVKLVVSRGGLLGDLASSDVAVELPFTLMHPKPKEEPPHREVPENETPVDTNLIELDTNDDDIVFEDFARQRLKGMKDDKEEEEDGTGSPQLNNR
UniProt P34947: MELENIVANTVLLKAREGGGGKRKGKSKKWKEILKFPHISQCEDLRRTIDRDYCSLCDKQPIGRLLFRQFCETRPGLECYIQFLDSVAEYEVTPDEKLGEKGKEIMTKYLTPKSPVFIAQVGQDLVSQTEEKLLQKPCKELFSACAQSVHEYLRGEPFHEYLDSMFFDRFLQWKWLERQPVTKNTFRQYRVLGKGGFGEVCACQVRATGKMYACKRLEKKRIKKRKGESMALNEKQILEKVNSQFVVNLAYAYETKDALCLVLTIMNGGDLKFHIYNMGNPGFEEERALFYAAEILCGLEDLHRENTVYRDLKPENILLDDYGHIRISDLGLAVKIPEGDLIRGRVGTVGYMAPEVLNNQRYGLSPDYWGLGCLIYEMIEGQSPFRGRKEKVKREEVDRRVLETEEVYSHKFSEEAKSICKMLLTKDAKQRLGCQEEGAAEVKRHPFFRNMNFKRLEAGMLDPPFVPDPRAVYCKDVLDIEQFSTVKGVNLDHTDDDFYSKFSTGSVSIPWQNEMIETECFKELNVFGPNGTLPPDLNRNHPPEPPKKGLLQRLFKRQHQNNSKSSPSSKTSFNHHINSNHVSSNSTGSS

For assay [2] the target is unchanged. Nature of the assay: split reporter; Gαq-GRK proximity assay: Gαq-Lg and Sm-GRK5 or Sm-GRK6 co-expressed with Gβ1, Gγ2, RIC8A and AT1R in parent cells; basal signal and change after 1 µM Ang II, 1 µM TRV027 or Ang II + 1 µM YM-254890.
The target of assay [3] is AT1R-Sm (angiotensin II type-1 receptor C-terminally fused to SmBiT) (human) (UniProt P30556). Nature of the assay: split reporter; NanoBiT β-arrestin-recruitment assay: AT1R-Sm and Lg-β-arrestin co-expressed in parent HEK293A cells (also ΔGRK2/3 and ΔGRK5/6 cells); living cells in suspension, HBSS with 0.01% BSA and 5 mM HEPES pH 7.4, coelenterazine, room temperature; 1 µM Ang II or 1 µM TRV027, with or without 1 µM YM-254890; Go6983 pretreatment.

The target of assay [4] is AT1R S331A (phospho-code single-Ala mutant) (human) (UniProt P30556). The description is as above.
Assay [5] deals with AT1R S326A (phospho-code single-Ala mutant) (human) (UniProt P30556). The description is as above.
Assay [6] addresses AT1R T332A (phospho-code single-Ala mutant) (human) (UniProt P30556). The assay is described as above.
Assay [7] concerns the target AT1R T336A (phospho-code single-Ala mutant) (human) (UniProt P30556). Described as above.
In assay [8] the target is AT1R S328A (phospho-code single-Ala mutant) (human) (UniProt P30556). The assay is described as above.
For assay [9], the target named is AT1R S335A (phospho-code single-Ala mutant) (human) (UniProt P30556). The assay is described as above.
The target in assay [10] is AT1R S338A (phospho-code single-Ala mutant) (human) (UniProt P30556). The assay is described as above.
Assay [11] concerns the target AT1R-Sm (angiotensin II type-1 receptor C-terminally fused to SmBiT) (human) (UniProt P30556). Put plainly: split reporter; NanoBiT β-arrestin-recruitment assay as a1, but in ΔGRK2/3/5/6 cells (GRK2, GRK3, GRK5 and GRK6 deleted); Ang II stimulation, Go6983 pretreatment.
Assay [12] deals with ∆tail-phos AT1R (C-terminally phosphorylation-deficient AT1R, all twelve Ser and Thr of the C-terminal region replaced with Ala) (human) (UniProt P30556). Nature of the assay: split reporter; NanoBiT β-arrestin-recruitment assay: AT1R-Sm and Lg-β-arrestin co-expressed in parent HEK293A cells (also ΔGRK2/3 and ΔGRK5/6 cells); living cells in suspension, HBSS with 0.01% BSA and 5 mM HEPES pH 7.4, coelenterazine, room temperature; 1 µM Ang II or 1 µM TRV027, with or without 1 µM YM-254890; Go6983 pretreatment.

These are yes or no findings as the source states them, for the method shown. Binding seen in cells or lysates may run through a third protein. Some entries that bind do so weakly or less than the wild type.

Regarding “Sm-GRK6 (GRK6 N-terminally fused to SmBiT) (from UniProt P43250 1-576) (enzyme)”, the binding result in [1] and in assay [2] was “binds” in each case.

“Lg-β-arrestin1 with the truncation in the finger-loop region (∆FLR) (from UniProt P49407 1-418)”: in assay [3], the binding result is reported as “binds”.

“Lg-β-arrestin1 (LgBiT-fused β-arrestin1) (from UniProt P49407 1-418)”: the binding entry in assay [4], in assay [3], in assay [5], in [6], in assay [7] and in assay [8] was “binds” in each case. Moreover, the results for the binding result in [9], in assay [10] and in [11] were “binds”, “binds” and “no binding (condition: in ΔGRK2/3/5/6 cells)”, respectively.

Consider “Sm-GRK5 (GRK5 N-terminally fused to SmBiT) (from UniProt P34947 1-590) (enzyme)”, for which the binding entry in assay [2] is “binds”.

Regarding “Lg-β-arrestin2 with the truncation in the finger-loop region (∆FLR) (from UniProt P32121 1-409)”, the binding result in assay [12] is on record as “no binding”; in assay [3] it was “binds”; in [11], “no binding (condition: in ΔGRK2/3/5/6 cells)”.

With “Lg-β-arrestin2 (LgBiT-fused β-arrestin2) (from UniProt P32121 1-409)”, the binding entry is “binds weakly” in [12], “binds” in [3] and “binds weakly” in assay [11].

These data come from PMC8789823.
